# According to patent US11393988B2, “Metal complexes” (Merck Patent GmbH, priority 2014, dated 2022):
# Legend:
# [1] = Vacuum-processed OLEDs with the complexes as phosphorescent emitter (efficiency, voltage, colour, lifetime)
# [2] = Solution-processed OLEDs from soluble functional materials; conditions: solution-processed OLED
# [3] = device Type 1, initial luminous density 1000 cd/m^2
SMILES,"EQE (%) 1000 cd/m^2 ([2]; device Type 1, at 1000 cd/m^2)","Voltage (V) 1000 cd/m^2 ([2]; device Type 1, at 1000 cd/m^2)","LT50 (h) 1000 cd/m^2 [2, 3]",other results
CC1(C)CCC(C)(C)c2cc3c(-c4cc5oc6ccccc6c5c[c]4[Ir]([c]4ccccc4-c4ccccn4)[c]4ccccc4-c4ccccn4)nccc3cc21 [Ir523],–,–,–,"LT80 (h) 1000 cd/m^2 ([1]; orange-red, yellow and green OLEDs, time to 80% of initial luminous density 1000 cd/m^2): 22000 h; Voltage (V) 1000 cd/m^2 ([1]; vacuum-processed OLED, at 1000 cd/m^2): 3.0 V; EQE (%) 1000 cd/m^2 ([1]; vacuum-processed OLED, complex as emitter in EML (structure per Table 1), at 1000 cd/m^2): 18.0%; EQE (%) 1000 cd/m^2 ([2]; device Type 2, at 1000 cd/m^2): 19.1%; Voltage (V) 1000 cd/m^2 ([2]; device Type 2, at 1000 cd/m^2): 3.8 V; LT50 (h) 1000 cd/m^2 ([2]; device Type 2, initial luminous density 1000 cd/m^2): 160000 h"
CC1(C)CCC(C)(C)c2cc(-c3cc4c(c[c]3[Ir]([c]3cc5oc6ccccc6c5cc3-c3cc5c(cn3)C(C)(C)CCC5(C)C)[c]3cc5oc6ccccc6c5cc3-c3cc5c(cn3)C(C)(C)CCC5(C)C)oc3ccccc34)ncc21 [Ir(LH39)3],21.3%,4.6 V,–,–
CC(C)(C)c1cc2[n+](cn1)[Ir-3]13([c]4cc5c(cc4-2)C(C)(C)CCC5(C)C)([c]2cc4c(cc2-c2cc(C(C)(C)C)nc[n+]21)C(C)(C)CCC4(C)C)[c]1cc2c(cc1-c1cc(C(C)(C)C)nc[n+]13)C(C)(C)CCC2(C)C [Ir(LH11)3],22.1%,4.3 V,–,–
Cc1cc(-c2cc3c(c[c]2[Ir]([c]2cc4c(cc2-c2cc(C)c(-c5ccccc5)cn2)C(C)(C)C(C)C(C)C4(C)C)[c]2cc4c(cc2-c2cc(C)c(-c5ccccc5)cn2)C(C)(C)C(C)C(C)C4(C)C)C(C)(C)C(C)C(C)C3(C)C)ncc1-c1ccccc1 (centres unmarked) [Ir(LH54)3],21.6%,4.6 V,200000 h,–
Cc1cc2[n+](cc1-c1ccc3c(c1)C(C)(C)CCC3(C)C)[Ir-3]13([c]4cc5c(cc4-2)C(C)(C)CCC5(C)C)([c]2cc4c(cc2-c2cc(C)c(-c5ccc6c(c5)C(C)(C)CCC6(C)C)c[n+]21)C(C)(C)CCC4(C)C)[c]1cc2c(cc1-c1cc(C)c(-c4ccc5c(c4)C(C)(C)CCC5(C)C)c[n+]13)C(C)(C)CCC2(C)C [Ir(LH15)3],22.1%,4.6 V,200000 h,–
CC1(C)CCC(C)(C)c2cc(-c3ccnc(-c4cc5c(c[c]4[Ir]([c]4ccccc4-c4ccccn4)[c]4ccccc4-c4ccccn4)C(C)(C)CCC5(C)C)c3)ccc21 [Ir513],22.4%,4.2 V,250000 h,–
CC1C(C)C(C)(C)c2c[c]([Ir]([c]3cc4c(cc3-c3cc(-c5ccccc5)ccn3)C(C)(C)C(C)C(C)C4(C)C)[c]3cc4c(cc3-c3cc(-c5ccccc5)ccn3)C(C)(C)C(C)C(C)C4(C)C)c(-c3cc(-c4ccccc4)ccn3)cc2C1(C)C (centres unmarked) [Ir(LH53)3],21.0%,4.3 V,140000 h,–
Cc1cc(-c2cc3c(c[c]2[Ir]([c]2ccccc2-c2ccccn2)[c]2cc4c(cc2-c2cc(C)c(-c5ccc6c(c5)C(C)(C)CCC6(C)C)cn2)C(C)(C)CCC4(C)C)C(C)(C)CCC3(C)C)ncc1-c1ccc2c(c1)C(C)(C)CCC2(C)C [Ir542],22.5%,4.6 V,–,–
CC(C)(C)c1c[c]2c(cn1)-c1c3cc4c(cc3cc[n+]1[Ir-3]213([c]2cc(C(C)(C)C)ncc2-c2c5cc6c(cc5cc[n+]21)C(C)(C)CCC6(C)C)[c]1cc(C(C)(C)C)ncc1-c1c2cc5c(cc2cc[n+]13)C(C)(C)CCC5(C)C)C(C)(C)CCC4(C)C [Ir(LH29)3],19.5%,3.7 V,–,–
